No constants are given. Whether binding was seen depends on the method and setting. Binding seen in cells or lysates may run through a third protein.

Chains of the proteins cited; added tags and fusions are not shown. Lines headed by an entry give the natural chain unless they say otherwise; changes in a name come on top. Residues count along the entry.
UniProt Q9P0T7, residues 21-183: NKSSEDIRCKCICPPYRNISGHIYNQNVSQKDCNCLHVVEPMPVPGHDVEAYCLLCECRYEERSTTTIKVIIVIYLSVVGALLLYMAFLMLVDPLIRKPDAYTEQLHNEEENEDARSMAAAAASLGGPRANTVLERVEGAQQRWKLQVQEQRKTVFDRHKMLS
UniProt Q14457: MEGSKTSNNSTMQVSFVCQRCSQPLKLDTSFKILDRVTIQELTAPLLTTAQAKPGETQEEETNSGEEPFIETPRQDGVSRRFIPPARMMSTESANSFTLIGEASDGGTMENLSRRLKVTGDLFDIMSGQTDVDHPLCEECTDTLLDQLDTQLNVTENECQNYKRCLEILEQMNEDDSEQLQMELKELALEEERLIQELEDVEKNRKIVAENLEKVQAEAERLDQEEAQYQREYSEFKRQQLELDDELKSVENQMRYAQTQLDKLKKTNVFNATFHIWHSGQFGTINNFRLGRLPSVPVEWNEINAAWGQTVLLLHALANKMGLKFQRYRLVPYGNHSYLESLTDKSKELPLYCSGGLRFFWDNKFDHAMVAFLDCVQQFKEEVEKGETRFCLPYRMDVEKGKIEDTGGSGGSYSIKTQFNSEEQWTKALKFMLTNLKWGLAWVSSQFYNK

Experiment [1] has as its target TMEM9 ΔC, HA-tagged (human) (UniProt Q9P0T7). The experiment can be described thus: co-IP; HEK293T co-transfected for 48 h with HA-tagged TMEM9 (or deletion mutants) and Beclin1-flag (or deletion mutants); IP with anti-HA antibody; blots with anti-flag and anti-HA.
Another experiment deals with TMEM9-VC (human) (UniProt Q9P0T7). In words: split reporter; BiFC with Venus fragments (VN, VC) in HeLa cells, 37 °C for 24 h, fixed with 4% PFA, confocal microscopy.

Turning to “Beclin1-flag (from UniProt Q14457 1-450)”, the binding result in experiment [1] is “no binding”.
Take VN-Beclin1 ΔBH3 (from UniProt Q14457): the binding result in the experiment with TMEM9-VC (human) is recorded as “no binding”.

The values above are taken from publication PMC11335249.
